Test results taken from paper PMC4324837 (Antiviral research, 2014).

Tested on: CMV AD169IE2-YFP
Assay: in vitro
Format: cell-based, Human cytomegalovirus
Conditions: MRC5 cells

COc1cc2c(c(OC)c1OC)-c1ccc(OC)c(=O)cc1[C@@H](NC(C)=O)CC2 [Colchicine]
Selective Ratio (CC50/EC50): >28
selectivity ratio (human, Selective Ratio (CC50/EC50)): < 30
